Taken from: PubChem BioAssay AID1224830 (NIAID, 2016)

Screen: 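Genes whose knock-down alters the TNF-alpha reporter response to LPS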 (primary screen)
Cell system: human THP-1 monocytic leukaemia cells, TNF dual-luciferase reporter clone, PMA-differentiated to macrophage-like cells
Reagents: siRNA pool against human genes, 50 nM
Timing: LPS for 4 h, given about 3 days after siRNA transfection
Challenge: bacterial LPS (TLR4 ligand), 10 ng/ml
Measured: 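Ratio of firefly to renilla light, scaled to the plate median and expressed as a robust z-score per replicate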
Scale: TNF reporter robust z-score: higher = stronger TNF reporter response to LPS
Active means: 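Each well counts as active if its z-score is over 2.8 or under -1.5; controls are left without a call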
Here is one part, drawn at random, of about 18,000 reagents. About 2,900 of all reagents (16%) count as active. 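Calls are made per well; low scores hint the gene aids the LPS response, high scores that it dampens it.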 A number with no mark means an inactive call. Repeated entries: four replicate wells of each siRNA pool.

PLA2G15 [SID315455398] | TNF reporter robust z-score = 0.49
PLA2G15 [SID315455398] | TNF reporter robust z-score = 0.81
PLA2G15 [SID315455398] | TNF reporter robust z-score = -0.53
PLA2G15 [SID315455398] | TNF reporter robust z-score = 0.46
ZRANB1 [SID315457149] | TNF reporter robust z-score = -0.74
ZRANB1 [SID315457149] | TNF reporter robust z-score = -0.33
ZRANB1 [SID315457149] | TNF reporter robust z-score = -0.03
ZRANB1 [SID315457149] | TNF reporter robust z-score = -0.6
HAVCR2 [SID315460532] | TNF reporter robust z-score = -0.9
HAVCR2 [SID315460532] | TNF reporter robust z-score = 0.09
HAVCR2 [SID315460532] | TNF reporter robust z-score = -0.71
HAVCR2 [SID315460532] | TNF reporter robust z-score = 0.43
C14orf181 (retired record) [SID315464736] | TNF reporter robust z-score = 0.37
C14orf181 (retired record) [SID315464736] | TNF reporter robust z-score = -1.14
C14orf181 (retired record) [SID315464736] | TNF reporter robust z-score = -0.69
C14orf181 (retired record) [SID315464736] | TNF reporter robust z-score = 1
RFTN1 [SID315455050] | TNF reporter robust z-score = 1.04
RFTN1 [SID315455050] | TNF reporter robust z-score = 0.84
RFTN1 [SID315455050] | TNF reporter robust z-score = 0.75
RFTN1 [SID315455050] | TNF reporter robust z-score = 1.17
ISCA2 [SID315461567] | TNF reporter robust z-score = -0.75
ISCA2 [SID315461567] | TNF reporter robust z-score = 0.21
ISCA2 [SID315461567] | TNF reporter robust z-score = -0.61
ISCA2 [SID315461567] | TNF reporter robust z-score = -0.94
MON1A [SID315460324] | TNF reporter robust z-score = 0.93
MON1A [SID315460324] | TNF reporter robust z-score = 2.1
MON1A [SID315460324] | TNF reporter robust z-score = 2.97 (active)
MON1A [SID315460324] | TNF reporter robust z-score = 1.05
APH1B [SID315460002] | TNF reporter robust z-score = 3.2 (active)
APH1B [SID315460002] | TNF reporter robust z-score = 0.93
APH1B [SID315460002] | TNF reporter robust z-score = -0.58
APH1B [SID315460002] | TNF reporter robust z-score = 0.65

Reformatted: entries from further up.
RFTN1 [SID315455050]
- TNF reporter robust z-score: 1.17

ISCA2 [SID315461567]
- TNF reporter robust z-score: -0.75

ISCA2 [SID315461567]
- TNF reporter robust z-score: 0.21

ISCA2 [SID315461567]
- TNF reporter robust z-score: -0.61
